Laboratory results published in US4596790A (Nyegaard & Co. A/S, priority 1983, dated 1986).

Assay: general procedure: solution-phase peptide synthesis

PEPTIDE1{[pGlu].Q.D.G}$$$$V2.0
step yield (late stage modification step): 74%

Z-L-pGlu-L-Gln-L-Asp(β-OBzl)-Gly-OBzl
step yield (coupling step): 73%

Some peptides are written in HELM: one residue between dots, names in brackets for other building blocks, links after the first $.
